Reference: publication PMC6168483
These are yes or no findings as the source states them, for the method shown. Some entries that bind do so weakly or less than the wild type.

Sequences of proteins named here, by UniProt entry; tags and fusion partners are left off.
UniProt Q9Y618: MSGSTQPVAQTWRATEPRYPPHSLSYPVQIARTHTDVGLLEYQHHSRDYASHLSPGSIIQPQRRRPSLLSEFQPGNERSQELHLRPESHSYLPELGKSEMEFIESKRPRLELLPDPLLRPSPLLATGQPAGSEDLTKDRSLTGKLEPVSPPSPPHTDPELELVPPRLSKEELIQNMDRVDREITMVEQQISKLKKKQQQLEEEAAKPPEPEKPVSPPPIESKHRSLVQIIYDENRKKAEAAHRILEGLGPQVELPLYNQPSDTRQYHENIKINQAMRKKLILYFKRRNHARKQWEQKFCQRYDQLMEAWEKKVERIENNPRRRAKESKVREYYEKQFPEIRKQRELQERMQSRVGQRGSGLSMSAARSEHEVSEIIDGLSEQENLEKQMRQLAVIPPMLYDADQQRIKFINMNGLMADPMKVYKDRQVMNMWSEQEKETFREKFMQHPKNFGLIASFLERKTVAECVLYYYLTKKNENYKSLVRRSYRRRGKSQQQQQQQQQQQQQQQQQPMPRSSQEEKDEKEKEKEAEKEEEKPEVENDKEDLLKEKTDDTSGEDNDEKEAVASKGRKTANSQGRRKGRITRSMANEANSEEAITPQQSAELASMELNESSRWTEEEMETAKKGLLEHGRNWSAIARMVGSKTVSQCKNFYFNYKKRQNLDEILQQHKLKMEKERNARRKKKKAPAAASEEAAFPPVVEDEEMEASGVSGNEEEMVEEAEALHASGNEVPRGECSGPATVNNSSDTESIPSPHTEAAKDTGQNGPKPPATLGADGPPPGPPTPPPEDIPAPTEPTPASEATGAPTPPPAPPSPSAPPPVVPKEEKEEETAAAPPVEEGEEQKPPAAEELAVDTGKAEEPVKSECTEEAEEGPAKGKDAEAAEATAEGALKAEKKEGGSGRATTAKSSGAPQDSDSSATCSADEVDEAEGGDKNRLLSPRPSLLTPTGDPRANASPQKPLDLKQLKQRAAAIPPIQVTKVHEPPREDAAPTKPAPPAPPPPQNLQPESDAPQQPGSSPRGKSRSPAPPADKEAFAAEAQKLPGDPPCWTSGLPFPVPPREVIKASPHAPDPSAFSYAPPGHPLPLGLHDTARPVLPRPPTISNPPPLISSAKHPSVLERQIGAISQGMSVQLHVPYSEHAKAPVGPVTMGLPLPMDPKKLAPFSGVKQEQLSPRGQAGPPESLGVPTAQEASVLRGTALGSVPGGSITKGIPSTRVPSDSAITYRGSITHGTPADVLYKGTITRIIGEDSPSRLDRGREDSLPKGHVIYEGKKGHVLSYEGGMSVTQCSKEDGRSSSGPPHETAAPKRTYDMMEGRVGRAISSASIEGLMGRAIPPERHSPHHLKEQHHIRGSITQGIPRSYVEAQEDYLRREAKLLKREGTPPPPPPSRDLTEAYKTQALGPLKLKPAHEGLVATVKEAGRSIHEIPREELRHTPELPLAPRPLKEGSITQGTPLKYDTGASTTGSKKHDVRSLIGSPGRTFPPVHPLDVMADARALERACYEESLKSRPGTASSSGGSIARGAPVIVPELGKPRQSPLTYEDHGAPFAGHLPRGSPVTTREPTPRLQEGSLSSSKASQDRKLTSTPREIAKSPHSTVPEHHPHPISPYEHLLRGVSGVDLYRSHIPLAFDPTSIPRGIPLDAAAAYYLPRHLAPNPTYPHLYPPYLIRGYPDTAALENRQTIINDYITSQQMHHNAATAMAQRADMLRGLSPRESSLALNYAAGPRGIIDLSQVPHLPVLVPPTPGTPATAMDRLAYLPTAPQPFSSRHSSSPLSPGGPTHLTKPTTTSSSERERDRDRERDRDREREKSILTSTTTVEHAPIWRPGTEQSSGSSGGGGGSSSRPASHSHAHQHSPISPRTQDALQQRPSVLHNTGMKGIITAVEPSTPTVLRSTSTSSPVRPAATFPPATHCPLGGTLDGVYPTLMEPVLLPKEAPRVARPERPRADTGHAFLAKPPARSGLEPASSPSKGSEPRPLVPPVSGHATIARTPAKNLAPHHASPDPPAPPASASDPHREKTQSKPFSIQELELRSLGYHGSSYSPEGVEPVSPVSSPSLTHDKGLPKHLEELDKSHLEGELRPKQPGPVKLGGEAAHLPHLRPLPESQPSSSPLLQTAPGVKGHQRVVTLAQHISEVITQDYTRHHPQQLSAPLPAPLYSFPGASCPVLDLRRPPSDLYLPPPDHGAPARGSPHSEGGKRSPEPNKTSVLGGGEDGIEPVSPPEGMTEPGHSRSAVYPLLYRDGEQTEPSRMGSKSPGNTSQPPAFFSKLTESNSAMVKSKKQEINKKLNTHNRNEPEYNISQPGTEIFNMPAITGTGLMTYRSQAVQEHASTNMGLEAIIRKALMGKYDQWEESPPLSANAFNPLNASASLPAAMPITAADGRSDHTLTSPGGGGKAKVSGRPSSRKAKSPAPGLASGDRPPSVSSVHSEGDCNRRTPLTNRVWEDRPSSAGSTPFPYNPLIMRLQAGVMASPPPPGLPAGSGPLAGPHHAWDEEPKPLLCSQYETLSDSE
UniProt Q13227: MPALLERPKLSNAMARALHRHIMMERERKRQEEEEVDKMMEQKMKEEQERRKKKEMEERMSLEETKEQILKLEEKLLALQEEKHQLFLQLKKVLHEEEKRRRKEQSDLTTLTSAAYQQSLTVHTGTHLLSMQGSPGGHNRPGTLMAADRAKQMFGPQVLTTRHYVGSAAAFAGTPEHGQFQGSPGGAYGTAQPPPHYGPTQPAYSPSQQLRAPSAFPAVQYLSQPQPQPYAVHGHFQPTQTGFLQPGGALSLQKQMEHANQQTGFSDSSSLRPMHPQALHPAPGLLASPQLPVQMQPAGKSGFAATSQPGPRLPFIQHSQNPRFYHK

Molecular target: SMRT (UniProt Q9Y618)
Test: co-purification of a recombinant complex; complexes transfected, expressed and purified as previously described (refs 23, 43); bait and purification steps not given

For GPS2 (from UniProt Q13227 1-327), the binding was “binds”.
